Data as given in publication PMC2811153.
These are yes or no findings as the source states them, for the method shown. In cells and extracts the contact can be indirect. Some entries that bind do so weakly or less than the wild type. Where a sequence is shown, tags or fusion partners need not be part of it.

Protein sequences, listed by entry. Tags and fused reporters are not part of them.
UniProt P22216: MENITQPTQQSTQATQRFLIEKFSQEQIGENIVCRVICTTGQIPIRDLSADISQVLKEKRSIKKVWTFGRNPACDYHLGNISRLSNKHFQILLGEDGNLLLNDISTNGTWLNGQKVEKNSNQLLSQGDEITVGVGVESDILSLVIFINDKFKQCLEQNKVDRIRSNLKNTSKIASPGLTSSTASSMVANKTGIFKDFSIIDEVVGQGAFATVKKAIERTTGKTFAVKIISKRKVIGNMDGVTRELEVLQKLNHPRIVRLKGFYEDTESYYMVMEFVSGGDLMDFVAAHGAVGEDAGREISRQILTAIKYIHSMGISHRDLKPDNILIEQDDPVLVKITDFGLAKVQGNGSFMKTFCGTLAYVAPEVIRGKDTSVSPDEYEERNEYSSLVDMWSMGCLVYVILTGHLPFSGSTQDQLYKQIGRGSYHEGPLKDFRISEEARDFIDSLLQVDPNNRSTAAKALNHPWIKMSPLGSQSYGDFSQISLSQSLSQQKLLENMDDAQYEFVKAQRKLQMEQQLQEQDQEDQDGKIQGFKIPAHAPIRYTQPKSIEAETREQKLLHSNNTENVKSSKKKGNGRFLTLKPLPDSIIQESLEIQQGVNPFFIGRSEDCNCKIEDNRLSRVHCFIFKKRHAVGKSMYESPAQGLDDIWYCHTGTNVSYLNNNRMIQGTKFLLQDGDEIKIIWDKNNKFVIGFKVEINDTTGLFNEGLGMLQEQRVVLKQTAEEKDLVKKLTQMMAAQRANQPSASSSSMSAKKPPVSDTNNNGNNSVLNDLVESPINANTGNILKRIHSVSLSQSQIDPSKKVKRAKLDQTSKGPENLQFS

Assays:
[1] = biological target: Rad53 (S. cerevisiae (endogenous in yeast)) (UniProt P22216); test: co-IP; Rad53 precipitated from yeast lysates with polyclonal DAB001 on protein A Dynabeads; cdc13-1 (damaged) or CDC13 cells at 32°C, then galactose to induce blank, HA-CDC5 or CDC14-Pk; rad9Δ and rad53Δ control strains; Western blot
[2] = biological target: Rad53 (S. cerevisiae (endogenous in yeast)) (UniProt P22216); test: co-IP; unpublished data: kinase-dead HA-cdc5-K110A immunoprecipitated with Rad53 from yeast

Row | binding [2] | Binder | binding [1]
1 | – | HA-Cdc5 (enzyme, UniProt P32562 1-705) MSLGPLKAINDKQLNTRSKLVHTPIKGNTADLVGKENHFKQTKRLDPNNDHHHQPAQKKKREKLSALCKTPPSLIKTRGKDYHRGHFLGEGGFARCFQIKDDSGEIFAAKTVAKASIKSEKTRKKLLSEIQIHKSMSHPNIVQFIDCFEDDSNVYILLEICPNGSLMELLKRRKVLTEPEVRFFTTQICGAIKYMHSRRVIHRDLKLGNIFFDSNYNLKIGDFGLAAVLANESERKYTICGTPNYIAPEVLMGKHSGHSFEVDIWSLGVMLYALLIGKPPFQARDVNTIYERIKCRDFSFPRDKPISDEGKILIRDILSLDPIERPSLTEIMDYVWFRGTFPPSIPSTVMSEAPNFEDIPEEQSLVNFKDCMEKSLLLESMSSDKIQRQKRDYISSIKSSIDKLEEYHQNRPFLPHSLSPGGTKQKYKEVVDIEAQRRLNDLAREARIRRAQQAVLRKELIATSTNVIKSEISLRILASECHLTLNGIVEAEAQYKMGGLPKSRLPKIKHPMIVTKWVDYSNKHGFSYQLSTEDIGVLFNNGTTVLRLADAEEFWYISYDDREGWVASHYLLSEKPRELSRHLEVVDFFAKYMKANLSRVSTFGREEYHKDDVFLRRYTRYKPFVMFELSDGTFQFNFKDHHKMAISDGGKLVTYISPSHESTTYPLVEVLKYGEIPGYPESNFREKLTLIKEGLKQKSTIVTVD | binds
2 | binds | HA-cdc5-K110A (enzyme, UniProt P32562 1-705) MSLGPLKAINDKQLNTRSKLVHTPIKGNTADLVGKENHFKQTKRLDPNNDHHHQPAQKKKREKLSALCKTPPSLIKTRGKDYHRGHFLGEGGFARCFQIKDDSGEIFAAATVAKASIKSEKTRKKLLSEIQIHKSMSHPNIVQFIDCFEDDSNVYILLEICPNGSLMELLKRRKVLTEPEVRFFTTQICGAIKYMHSRRVIHRDLKLGNIFFDSNYNLKIGDFGLAAVLANESERKYTICGTPNYIAPEVLMGKHSGHSFEVDIWSLGVMLYALLIGKPPFQARDVNTIYERIKCRDFSFPRDKPISDEGKILIRDILSLDPIERPSLTEIMDYVWFRGTFPPSIPSTVMSEAPNFEDIPEEQSLVNFKDCMEKSLLLESMSSDKIQRQKRDYISSIKSSIDKLEEYHQNRPFLPHSLSPGGTKQKYKEVVDIEAQRRLNDLAREARIRRAQQAVLRKELIATSTNVIKSEISLRILASECHLTLNGIVEAEAQYKMGGLPKSRLPKIKHPMIVTKWVDYSNKHGFSYQLSTEDIGVLFNNGTTVLRLADAEEFWYISYDDREGWVASHYLLSEKPRELSRHLEVVDFFAKYMKANLSRVSTFGREEYHKDDVFLRRYTRYKPFVMFELSDGTFQFNFKDHHKMAISDGGKLVTYISPSHESTTYPLVEVLKYGEIPGYPESNFREKLTLIKEGLKQKSTIVTVD | –
